Results are given in words; binding and its absence hold for the method and conditions named. For some assays here: In cells and extracts the contact can be indirect. Some results given as binding are weak or reduced against the parent protein; the word gives no strength.
How the values were obtained:
[1] = molecular target: Dicer (DCR-1), C. elegans (Caenorhabditis elegans) (UniProt P34529); experiment: gravid adult DCR-1 purification on anti-DCR-1 matrixes, MudPIT (A); western detection (W)
[2] = molecular target: DCR-1::8xHA fusion protein (Caenorhabditis elegans) (UniProt P34529); experiment: embryonic DCR-1::8xHA purification on HA matrixes, MudPIT (E); western detection (W)
[3] = molecular target: Dicer (DCR-1), C. elegans (Caenorhabditis elegans) (UniProt P34529); experiment: co-IP with DCR-1, antibody matrix, purification 1, MudPIT (P = present)
[4] = molecular target: Dicer (DCR-1), C. elegans (Caenorhabditis elegans) (UniProt P34529); experiment: co-IP with DCR-1, antibody matrix, purification 2, MudPIT (P = present)
[5] = molecular target: Dicer (DCR-1), C. elegans (Caenorhabditis elegans) (UniProt P34529); experiment: co-IP with DCR-1, second antibody matrix (1001), minus controls, MudPIT (P = present)
[6] = molecular target: Dicer (DCR-1), C. elegans (Caenorhabditis elegans) (UniProt P34529); experiment: DCR-1 purification, MudPIT
[7] = molecular target: Dicer (DCR-1), C. elegans (Caenorhabditis elegans) (UniProt P34529); experiment: co-IP with DCR-1, antibody matrix, purification 4, MudPIT (P = present)
[8] = molecular target: Dicer (DCR-1), C. elegans (Caenorhabditis elegans) (UniProt P34529); experiment: co-IP with DCR-1, antibody matrix, purification 3, MudPIT (P = present)
[9] = molecular target: Dicer (DCR-1), C. elegans (Caenorhabditis elegans) (UniProt P34529); experiment: gravid adult DCR-1 purification on anti-DCR-1 matrixes, MudPIT (A)
[10] = molecular target: DCR-1::8xHA fusion protein (Caenorhabditis elegans) (UniProt P34529); experiment: embryonic DCR-1::8xHA purification on HA matrixes, MudPIT (E)
[11] = molecular target: DCR-1::8xHA fusion protein (Caenorhabditis elegans) (UniProt P34529); experiment: embryonic DCR-1::8xHA purification, MudPIT
[12] = molecular target: Dicer (DCR-1), C. elegans (Caenorhabditis elegans) (UniProt P34529); experiment: adult DCR-1 purification, MudPIT

Sequences of proteins named here, by UniProt entry; tags and fusion partners are left off. A change or cut given only in a name is not applied to a line headed by its entry.
UniProt P34529: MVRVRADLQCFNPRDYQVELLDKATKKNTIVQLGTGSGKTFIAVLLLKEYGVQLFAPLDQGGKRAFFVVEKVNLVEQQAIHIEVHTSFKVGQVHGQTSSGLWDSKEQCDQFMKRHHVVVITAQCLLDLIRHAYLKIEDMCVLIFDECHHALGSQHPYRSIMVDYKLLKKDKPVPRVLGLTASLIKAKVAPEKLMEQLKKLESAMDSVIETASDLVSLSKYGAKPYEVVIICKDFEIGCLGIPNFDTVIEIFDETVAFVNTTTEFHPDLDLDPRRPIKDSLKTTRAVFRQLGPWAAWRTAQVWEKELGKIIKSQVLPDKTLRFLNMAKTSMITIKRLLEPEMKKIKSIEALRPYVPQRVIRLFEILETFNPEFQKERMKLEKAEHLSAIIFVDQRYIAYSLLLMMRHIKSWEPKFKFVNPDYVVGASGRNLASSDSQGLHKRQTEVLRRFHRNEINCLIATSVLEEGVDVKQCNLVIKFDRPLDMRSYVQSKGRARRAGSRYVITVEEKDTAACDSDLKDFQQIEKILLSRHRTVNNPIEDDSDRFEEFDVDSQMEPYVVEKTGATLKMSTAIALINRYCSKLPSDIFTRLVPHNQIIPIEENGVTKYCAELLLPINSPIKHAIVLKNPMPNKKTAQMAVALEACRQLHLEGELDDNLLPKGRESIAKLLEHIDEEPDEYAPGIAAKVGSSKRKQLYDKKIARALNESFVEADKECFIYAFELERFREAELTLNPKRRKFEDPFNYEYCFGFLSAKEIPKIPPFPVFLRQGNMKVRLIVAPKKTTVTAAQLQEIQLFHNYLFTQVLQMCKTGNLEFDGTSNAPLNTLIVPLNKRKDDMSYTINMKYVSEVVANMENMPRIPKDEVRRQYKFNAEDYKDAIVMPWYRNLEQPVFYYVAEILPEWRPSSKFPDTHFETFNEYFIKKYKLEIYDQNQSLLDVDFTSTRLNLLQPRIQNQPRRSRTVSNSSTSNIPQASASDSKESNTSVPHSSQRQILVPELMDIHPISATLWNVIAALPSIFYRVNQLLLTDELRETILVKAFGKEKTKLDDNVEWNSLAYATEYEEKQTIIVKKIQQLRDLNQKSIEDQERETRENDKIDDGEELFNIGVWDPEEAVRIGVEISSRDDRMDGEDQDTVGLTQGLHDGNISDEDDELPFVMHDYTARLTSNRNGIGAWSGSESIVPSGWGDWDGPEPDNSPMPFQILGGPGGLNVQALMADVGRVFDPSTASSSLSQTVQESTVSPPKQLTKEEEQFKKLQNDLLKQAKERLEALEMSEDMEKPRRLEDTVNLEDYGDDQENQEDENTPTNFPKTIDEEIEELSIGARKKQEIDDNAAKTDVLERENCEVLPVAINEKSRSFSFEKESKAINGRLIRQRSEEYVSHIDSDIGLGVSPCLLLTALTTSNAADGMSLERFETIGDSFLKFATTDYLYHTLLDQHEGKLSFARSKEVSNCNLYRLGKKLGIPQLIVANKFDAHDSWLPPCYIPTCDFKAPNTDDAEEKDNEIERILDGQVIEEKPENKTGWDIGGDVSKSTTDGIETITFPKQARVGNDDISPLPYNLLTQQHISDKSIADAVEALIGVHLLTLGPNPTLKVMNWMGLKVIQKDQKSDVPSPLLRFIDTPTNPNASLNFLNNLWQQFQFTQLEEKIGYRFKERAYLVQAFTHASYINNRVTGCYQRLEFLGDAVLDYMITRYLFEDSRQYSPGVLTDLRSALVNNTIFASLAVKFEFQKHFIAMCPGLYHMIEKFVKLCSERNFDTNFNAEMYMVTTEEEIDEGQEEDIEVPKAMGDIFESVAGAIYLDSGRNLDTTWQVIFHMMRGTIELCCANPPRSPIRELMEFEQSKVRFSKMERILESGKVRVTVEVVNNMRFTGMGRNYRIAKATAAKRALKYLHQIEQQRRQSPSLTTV

Measured: binding

B1: DRH-2 (enzyme)
chain: MIVNLCNEHRDPLDDEYPPEQFFLSTFTIIFFDECHNTVKNSPYSNVMREYHYLKNMGNMPEGHSFPQIIGLTASLGTGDKKNCMQVRSYIAGLCANMDVKELSIVKDNLEELLDHNPFVTDQVSFCERSNDGPIEMFTKRLKQMMQEVEDLIRTTLKNEPTVKYEIPPTDKEHNRYENWISNQRNCVSLAGSRNKTLIIEVLDVLKDCFYALSYNINFNPEVALKKYLEKELGPERIRNFTDNMNLIWDNCHRELVGIGSAENPMIARTVQFILDQNEQTSDFRAIIFVRTKKEADFLNYVLNDRLHELGIKSDWMSGQKKSTASSADISASKQKQMEKLKMFADGENQILVSTSVAEEGLDIPECSLVIKYNYATNETAHVQRRGRARARNSKCVLITNSIALHVQESNNLAKENLMTETISLIQNSPGEFRQCVDEESNKVWPRIQREDTDKAQRIKEQINRNIVYKIVCMKCDTVLCTNKDIRSKNTQYIVCNPGFWSLVRRIPLPLEQRASNKFNSTGSIECLGERCGSKLGQLIDVNTVNLPCLKVKSILLLIESTNERILVKQWKNILDEHFTPTTLKQRDVQTMKDADYGRAPIEFEHHTANGEVINVIRQA
notes: Endogenous protein from C. elegans extract; also called C01B10.1; Dicer-Related Helicase
not listed: [9] | [10] | [11] | [12]
binds: all other assays above

B2: DRH-3 (D2005.5) (enzyme)
chain: MQPTAIRLEDYDKSKLRLPFESPYFPAYFRLLKWKFLDVCVESTRNNDIGYFKLFESLFPPGKLEEIARMIIDEPTPVSHDPDMIKIRNADLDVKIRKQAETYVTLRHAHQQKVQRRRFSECFLNTVLFDEKGLRIADEVMFNYDKELYGYSHWEDLPDGWLTAETFKNKFYDEEEVTNNPFGYQKLDRVAGAARGMIIMKHLKSNPRCVSETTILAFEVFNKGNHQLSTDLVEDLLTEGPAFELKIENGEEKKYAVKKWSLHKTLTMFLAIIGFKSNDKKEKNEHEEWYYGFIDAMKNDPANRAALYFLDKNWPEELEEREKERDRIRLTLLKSQRTNEEAVGEDVCTTIRPQPKDSGYNPDAVVTELVLRTYQEELVQPALEGKNCVIVAPTGSGKTEVAIYAALKHIEERTSQGKPSRVVLLVPKIPLVGQQKDRFLKYCNGMYEVNGFHGSESSVSGTGRRDEVIATHVSVMTPQILINMLQSVRQNERLYVSDFSMMIFDEVHKAAKNHPYVLINQMVQEWKYEKPQIIGLTASLSVKVDGQKDENQMLNDIYNMLALINAPHLSTITRQSSIDELNEHVGKPDDSVELCLPAKENILRDYIERYLNHAHGKFLEELASMSKSTGRNNTIPPNMINTFKKNQPKNYEYYDSLLQGIIQELNKLNVPEKWNSQTWAKYMKVYLEARGIVDLMPAMVAFKYMEKAIGKLNESHSETVEYSTFIKDHDTLKQTIQSVEPEIVLRLKNTLTNQFHVAPESRVIIFVTQRSTAQRVSDFLNESKVLDQFGNYGEQMVGYVLGTNKQGAVQQTSQEQQLTLDKFNNGRLKVIVATSVVEEGLDVTACNLIIKYNCSSGSAIQLVQQRGRARAKNSRSVLLSVKSSINETETNALISEKYMRLCVKKITENGEKQLAAEVKRVAELNAAERKRNLEEQLNLRLRHENKIYKLMCSNCSKEFCKSIYIKKVFSNYMVFDPSVWRFLHVESKRKVSKYLSEDNQPLSDIKCFHCKLDVGRAYKIRGTYLPQLSVKALTFVQESDYSSMTKAKWSDVEQDLFYISEAIEDDFRIMLNALSDTEENIEKKIVLDLDSRQHNKQLEMKRFHIQQEPPTKGVAPEAQ
binds: [9] | [6] | [10]

B3: ERI-3 (W09B6.3) (protein)
chain: MQPVLVNSRPLRVKSHESESKLNLIEQEDQFEGANYSSSSGVIICYSNGTGEVITQEAFDDSGIHFIFSKATCIQYPSNFDPIGVGSVVQIFWSRSFERVVRGNHIIVQIEKMEVYKCCAMLREQVFVTFNSPSTAGVAIGVTERNITVAFHPNCSPVIRYETLKAHSIGRTEFEIKDRHRENTNRMVDVILAAVPFRVEIHGNVDKIPFFVIEKCRNSPGRSGAAVITKIMKNHFMEANFLQNSESIYFDSTSCHSNILEKVSIGSLINVLADPTFATSSYKWYGYDVTLCNNYLAHASTQRSFVLENNEILQNCKKLEKSPEEAETTTKNDLRFVPPQPEKGEVKKKKMTNCLKFNSKSAQFKLRHLILDRCFSELPEREAKSIINSYFIDRLAEGIKIEKIDKNWRTFGEILPKTPKKYSESLKKSIQNVLEPFGLNKPEKAAETPKIVEYFPKNPKKRVEIVEKPTVDEIRELFGALMDAEGFALNQRVKPHFVLPDTRWKPTERRYIGIYDDVQWTFMSTFCPKIEENSENRPLAGGWWYRRTVPRDHPVEIVQKMETRRNIIKDCTESPFIE
binds: [9] | [6] | [10]

B4: ERI-5 (Y38F2AR.1) (protein)
chain: MAMAPLRPRVFARCLILKNLELIEAARIFFIDSAVTANVSWKCLFQIDENLKFHPWQAMHCTLGRLVHLSDSWTDTQCTEFRNIVSKFAKFQITANQCDVDFRSDRPSLLVNLYGLPNGTEIDKKVAIEEICAVSMQNVMVSQFPTNFMVNPKLEELDKEQDHLDVILLEEFRRDLPADWAHEPPADYREDDADWDILQCHVAEWNDTALEQFRRADGSFWAMLEPSCTVSPWEMHVTPILAPEKMSDNEHWIFEQLVKNSENQQKIDDFYSNLKNQRPLEMEEIKFALQTGRTYVMATIKNRQKSSAQWLRCEIIDFLPNANVALRYVDLGTRGILKLKNLHRMHIEHTKIAPACIEIGRFLDDDLSMADSEMEWNTHFWREIVPYDVPIVVGPDMEFLETGKLQFSQIRVAGDEDDENLLDKIPSPSPFFTERSDDLRTQKEDDDDGNVSDDKDSG
binds: [9] | [6] | [10]

B5: TAF 6.1 (protein)
chain: MSKTVTIRRPSPTKTSEEPAAHQTPIFTQTAAEMLGITSLNTEAAELLEFLSREKLKEIVRLSAKWTQKSARRRMAVADVEHAIRSTRQCGGLNISSVDTLNLGIQQLQPIQGTSTGIYSFLKSSADVDVDKEDTETFIKIPRDLRVISYPLVNEGQPVQSEYTVNVDEDDGNFFEKIVPEVMTMIPEKNTPSSSTTSSLQMFRDAVKTAKIDQKVGLKPSTIEILTVEQQIFMKDIITVCMGQDDKKRHEALYTLETDAGLQVFLPHLTERICKSISANISQRCLSLIIYAGRVLRSLSHNKACDMTVTLHHVLPALLSCCVGRNMCLRPETDNHWALRDFSAKTLVGLVRDQVDKHDAGRTARRLFDFSHRIFRDTGSSFSMIYGTVHILQEFVAGPKKAAWLLTELGETNARCKSHIESGSRIGASQLSIQEAQKLNQQILKCENSIRNRYNLQQQAPGVPINRRFH
binds: [10]

B6: PIR-1 (T23G7.5) (enzyme)
chain: MPEPRCTAIVNFLNLSHSILISIFSVSVMSNYHHNHNYQHRPRGYERLPGKRLPDRWNIYDNVGRDIDGTRFVPFKTPLDSSFFDGKNMPVELQFGVKTLISLAQQANKQIGLVIDLTNTDRYYKKTEWADHGVKYLKLNCPGHEVNEREDLVQDFINAVKEFVNDKENDGKLIGVHCTHGLNRTGYLICRYMIDVDNYSASDAISMFEYYRGHPMEREHYKKSLYEAERKKKYGKSSGKSSGNSADSTISSEQLHRNNSQ
binds: [9] | [6] | [11] | [10] | [12]
